# According to PubChem BioAssay AID504467 (National Center for Advancing Translational Sciences (NCATS), 2011):
# Out of some 330,000 compounds screened, about 7,700 (2.3%) were called active. The shares of active, inactive and inconclusive entries below differ from those in the screen. Calls follow the shape of the dose curve; as a rule, active = well fitted inhibition curve with a large enough effect; inconclusive = small, poorly fitted or top-dose-only effect, or effect the other way; inactive = flat fitted curve, though single readings scatter. Where the call is inconclusive, the potency comes from a doubtful curve fit.
# Assay: qHTS screen for small molecules that inhibit ELG1-dependent DNA repair in human embryonic kidney (HEK293T) cells expressing luciferase-tagged ELG1; also: nearly all actives have a fitted effect of over 55% in size
# Details: HEK293T ELG1-luciferase reporter, luminescence, 16 h, DNA damage induced by 5-fluorouridine; activity change, negative = inhibition: at 46.1 µM (top of the series)
# Method in brief: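 Reporter activity after DNA damage by 5-fluorouridine is monitored. Compound-treated cells incubate 16 hr at 37 °C, then ONE-Glo is added for 30 min before luminescence reading.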
# % is scaled to controls: 0 for no effect and ±100 for the full control effect; potency is read from the fitted curve at half-maximal effect.
SMILES,Potency,"activity change, negative = inhibition"
Cc1cccn2cc(-c3ccccc3)nc12,"inconclusive: 5.8 µM [activator, partial curve]",
Nc1c2c(nc3c1CCCC3)CCCC2 (tested in a mixture with another compound),"inconclusive: 3.26 µM [inhibitor, single point]",
CC(C)c1ccc(NS(=O)(=O)c2ccc3c(c2)oc(=O)n3C)cc1,,inactive: -18.8%
O=C(c1cccs1)N1CCCC(c2ccccc2)C1 (stereo not given),,inactive: 28.8%
COc1ccc(CNC(=O)C2CC(=O)N(C3CCCC3)C2)cc1 (stereo not given),,inactive: 1.56%
CCCSc1nc(N)cc(=O)[nH]1,,inconclusive: 20.6% [activator]
COc1ccc(CCC(=O)Nc2ncc(C)s2)cc1,,inactive: 17.3%
Cc1cccc(OCC(=O)Nc2ccc(S(=O)(=O)N3CCCC3)cc2)c1,"inconclusive: 23.1 µM [inhibitor, single point]",
O=C(COc1cccnc1[N+](=O)[O-])N1N=C(c2ccc(Cl)cc2)CC1c1ccco1 (stereo not given),"inconclusive: 29.1 µM [inhibitor, single point]",
CCOc1cc(N2CCOCC2)c(OCC)cc1NC(=O)c1c(-c2ccccc2)noc1C,"inconclusive: 20.6 µM [inhibitor, partial curve]",
O=C(c1cccs1)n1nc(-c2ccc(Cl)cc2)nc1NCc1ccco1,"inconclusive: 23.1 µM [activator, partial curve]",
O=C(NCCNc1ccc([N+](=O)[O-])cc1)c1ccccc1Br,"inconclusive: 20.6 µM [inhibitor, single point]",
COc1ccc(CNC(=O)Cn2cc(C(F)(F)F)ccc2=O)cc1OC,,inactive: -1.46%
CC(OC(=O)C1CC1)C(=O)Nc1cc(Cl)cc(Cl)c1 (stereo not given),"inconclusive: 3.66 µM [inhibitor, partial curve, poor fit]",
CCOC(=O)C1CCCN(C(=O)c2cccc(N3C(=O)c4ccccc4C3=O)c2)C1 (stereo not given),,inactive: 3.5%
CCCCCCC(c1c(C)n(C)n(-c2ccccc2)c1=O)c1c(C)n(C)n(-c2ccccc2)c1=O,"inconclusive: 20.6 µM [inhibitor, partial curve, poor fit]",
CN(C)CCCNC(=O)C(=O)NCC(c1cccs1)S(=O)(=O)c1ccc(F)cc1 (stereo not given),,inactive: 13%
COc1ccccc1NC(=O)C1=C(C)NC(SCC(=O)c2ccccc2)=C(C#N)C1c1ccco1 (stereo not given),"inconclusive: 18.4 µM [inhibitor, single point]",
O=C(CCC(=O)n1ncc2ccccc21)NCc1ccccc1Cl,"inconclusive: 20.6 µM [activator, single point]",
O=C(c1ccc(Cl)cc1)c1cnc(-c2ccccc2)s1,"inconclusive: 3.26 µM [activator, single point]",
CN(Cc1ccccc1)C(=O)CN(c1ccc(F)cc1)S(=O)(=O)c1ccc2c(c1)OCCO2,"inconclusive: 29.1 µM [inhibitor, single point]",
CCC(c1nnnn1Cc1ccco1)N(CCc1ccccc1)Cc1cc2cccc(C)c2[nH]c1=O (stereo not given),"inconclusive: 29.1 µM [inhibitor, single point]",
COc1ccc(Cl)cc1S(=O)(=O)N1CCN(C(=O)c2cc(OC)c(OC)c(OC)c2)CC1,,inactive: 7.63%

SMILES,Potency,"activity change, negative = inhibition"
O=C(Nc1ccccc1)N1CC=C(c2ccccc2)CC1,"inconclusive: 16.4 µM [activator, partial curve]",
COc1ccc(CNC(=O)CN(C(=O)c2snc(C(N)=O)c2N)c2ccc(OC)c(OC)c2)cc1,,inactive: 9.46%
O=C(CCC(=O)N1CCCCC1)Nc1nnc(C2CCCCC2)s1,,inactive: 5.89%
COc1ccccc1N1CCN(S(=O)(=O)c2ccccc2)CC1,"inconclusive: 18.4 µM [activator, single point]",
COc1cc2sc(-c3ccccc3OC)c(-c3ccc(OCCN4CCOCC4)cc3)c2cc1OC,"inconclusive: 32.6 µM [inhibitor, single point]",
COc1ccc(S(=O)(=O)N(CC(=O)Nc2ccc(S(=O)(=O)N3CCOCC3)cc2)Cc2ccc(F)cc2)cc1,"inconclusive: 29.1 µM [inhibitor, single point]",
c1cncc(-c2nc3ccccc3[nH]2)c1,"inconclusive: 18.4 µM [activator, single point]",
N=c1n(CCN2CCCCC2)c2ccccc2n1CC(=O)c1cccc([N+](=O)[O-])c1,,inactive: 0.649%
Cc1cccc(CSc2nnc(-c3cnccn3)n2C)c1,"inconclusive: 18.3 µM [activator, partial curve, poor fit]",
COc1ccc(C(=O)Nc2nnc(S(=O)(=O)Cc3ccc(F)cc3)s2)cc1,,inactive: 6.33%
COc1cc(/C=C/C(=O)O)cc(S(=O)(=O)Nc2ccccc2C(=O)NCc2ccco2)c1OC,,inactive: 0%
CCOc1ccc(-n2cc(C(=O)N3CCN(C)CC3)c3cc(OC)c(OC)cc3c2=O)cc1,"inconclusive: 16.4 µM [activator, single point]",
O=S(=O)(Nc1ccc(O)c(CN2CCCCC2)c1)c1ccccc1,,inactive: -9.05%
COc1cccc(Nc2nc(NCC3CCCO3)c3ccccc3n2)c1 (stereo not given),"inconclusive: 14.6 µM [inhibitor, partial curve, poor fit]",
CN(Cc1ccccc1)Cc1c(F)cccc1F,,inactive: 9.46%
CCOC(=O)c1[nH]c2c(c1-c1ccccc1)C(=O)CC(c1ccccc1)C2 (stereo not given),"inconclusive: 11.6 µM [activator, partial curve, poor fit]",
O=C(CC(=O)NC1CCCCC1)N/N=C/c1ccccc1[N+](=O)[O-],"inconclusive: 16.4 µM [activator, single point]",
CCN1C(=O)[C@@H]2[C@@H](c3ccc(-c4ccc5c(c4)OCO5)cc3)N3CCCC[C@@]3(C(=O)OC)[C@@H]2C1=O,"inconclusive: 31.6 µM [inhibitor, single point]",
COc1ccccc1-n1c(-c2ccc(F)cc2)coc1=O,,inactive: 0.483%
O=C(NCCOc1ccccc1)C1CCC(=O)N(CCN2CCOCC2)C1 (stereo not given),,inactive: 7.92%
CCOC(=O)c1ccc(NC(=O)CCc2nc(-c3cccc(C)c3)no2)cc1,"inconclusive: 18.4 µM [inhibitor, single point]",
Cc1nnc2ccc(-c3cccc(NS(C)(=O)=O)c3)nn12,"inconclusive: 23.1 µM [activator, partial curve]",
